Sequences of proteins named here, by UniProt entry; tags and fusion partners are left off. A change or cut given only in a name is not applied to a line headed by its entry.
UniProt Q13625: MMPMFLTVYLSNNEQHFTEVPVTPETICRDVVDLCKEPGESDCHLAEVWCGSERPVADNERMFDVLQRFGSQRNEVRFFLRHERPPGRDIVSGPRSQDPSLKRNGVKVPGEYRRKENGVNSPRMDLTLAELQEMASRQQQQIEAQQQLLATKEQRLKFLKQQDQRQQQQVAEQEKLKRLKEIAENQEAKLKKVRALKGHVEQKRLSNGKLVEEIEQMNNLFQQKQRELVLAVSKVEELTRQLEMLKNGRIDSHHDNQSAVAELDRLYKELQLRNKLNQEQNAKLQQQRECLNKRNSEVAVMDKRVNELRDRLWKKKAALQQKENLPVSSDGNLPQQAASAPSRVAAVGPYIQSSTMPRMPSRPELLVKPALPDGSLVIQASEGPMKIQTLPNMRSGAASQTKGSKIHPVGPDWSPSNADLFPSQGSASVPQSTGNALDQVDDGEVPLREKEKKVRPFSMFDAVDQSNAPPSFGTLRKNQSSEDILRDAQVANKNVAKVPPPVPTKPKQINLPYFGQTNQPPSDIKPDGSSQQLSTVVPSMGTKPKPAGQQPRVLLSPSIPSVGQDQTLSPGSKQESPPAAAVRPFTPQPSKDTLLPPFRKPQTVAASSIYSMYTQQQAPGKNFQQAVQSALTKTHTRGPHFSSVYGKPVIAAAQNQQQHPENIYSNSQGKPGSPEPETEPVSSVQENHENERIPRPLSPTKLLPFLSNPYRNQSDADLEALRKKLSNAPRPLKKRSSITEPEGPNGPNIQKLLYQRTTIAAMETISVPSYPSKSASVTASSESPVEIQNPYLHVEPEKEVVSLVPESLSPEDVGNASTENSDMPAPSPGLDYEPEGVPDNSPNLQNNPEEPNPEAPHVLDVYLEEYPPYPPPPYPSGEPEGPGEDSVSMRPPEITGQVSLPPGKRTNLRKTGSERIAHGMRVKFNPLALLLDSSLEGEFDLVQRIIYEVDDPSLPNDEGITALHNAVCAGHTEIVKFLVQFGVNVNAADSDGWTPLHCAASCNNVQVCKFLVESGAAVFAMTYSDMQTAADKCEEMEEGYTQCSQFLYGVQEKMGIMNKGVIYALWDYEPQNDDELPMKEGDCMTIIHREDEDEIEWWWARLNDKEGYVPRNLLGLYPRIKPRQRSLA
UniProt Q9H3S4: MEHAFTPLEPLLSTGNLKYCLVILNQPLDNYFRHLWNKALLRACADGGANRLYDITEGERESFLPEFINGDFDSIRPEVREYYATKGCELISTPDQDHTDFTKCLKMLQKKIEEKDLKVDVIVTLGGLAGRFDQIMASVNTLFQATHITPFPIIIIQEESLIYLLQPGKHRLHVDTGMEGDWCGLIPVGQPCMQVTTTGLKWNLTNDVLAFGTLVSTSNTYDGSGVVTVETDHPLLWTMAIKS
UniProt O95900: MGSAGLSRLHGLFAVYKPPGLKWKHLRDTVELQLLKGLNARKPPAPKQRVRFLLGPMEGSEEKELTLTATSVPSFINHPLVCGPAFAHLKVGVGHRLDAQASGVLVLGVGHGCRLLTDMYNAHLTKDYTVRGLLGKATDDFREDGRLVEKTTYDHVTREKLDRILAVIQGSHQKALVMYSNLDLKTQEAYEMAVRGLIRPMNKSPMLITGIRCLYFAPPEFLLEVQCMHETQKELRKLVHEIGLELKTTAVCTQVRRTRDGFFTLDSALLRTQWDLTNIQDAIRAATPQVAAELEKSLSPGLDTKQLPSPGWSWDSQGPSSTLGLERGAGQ
UniProt O15164: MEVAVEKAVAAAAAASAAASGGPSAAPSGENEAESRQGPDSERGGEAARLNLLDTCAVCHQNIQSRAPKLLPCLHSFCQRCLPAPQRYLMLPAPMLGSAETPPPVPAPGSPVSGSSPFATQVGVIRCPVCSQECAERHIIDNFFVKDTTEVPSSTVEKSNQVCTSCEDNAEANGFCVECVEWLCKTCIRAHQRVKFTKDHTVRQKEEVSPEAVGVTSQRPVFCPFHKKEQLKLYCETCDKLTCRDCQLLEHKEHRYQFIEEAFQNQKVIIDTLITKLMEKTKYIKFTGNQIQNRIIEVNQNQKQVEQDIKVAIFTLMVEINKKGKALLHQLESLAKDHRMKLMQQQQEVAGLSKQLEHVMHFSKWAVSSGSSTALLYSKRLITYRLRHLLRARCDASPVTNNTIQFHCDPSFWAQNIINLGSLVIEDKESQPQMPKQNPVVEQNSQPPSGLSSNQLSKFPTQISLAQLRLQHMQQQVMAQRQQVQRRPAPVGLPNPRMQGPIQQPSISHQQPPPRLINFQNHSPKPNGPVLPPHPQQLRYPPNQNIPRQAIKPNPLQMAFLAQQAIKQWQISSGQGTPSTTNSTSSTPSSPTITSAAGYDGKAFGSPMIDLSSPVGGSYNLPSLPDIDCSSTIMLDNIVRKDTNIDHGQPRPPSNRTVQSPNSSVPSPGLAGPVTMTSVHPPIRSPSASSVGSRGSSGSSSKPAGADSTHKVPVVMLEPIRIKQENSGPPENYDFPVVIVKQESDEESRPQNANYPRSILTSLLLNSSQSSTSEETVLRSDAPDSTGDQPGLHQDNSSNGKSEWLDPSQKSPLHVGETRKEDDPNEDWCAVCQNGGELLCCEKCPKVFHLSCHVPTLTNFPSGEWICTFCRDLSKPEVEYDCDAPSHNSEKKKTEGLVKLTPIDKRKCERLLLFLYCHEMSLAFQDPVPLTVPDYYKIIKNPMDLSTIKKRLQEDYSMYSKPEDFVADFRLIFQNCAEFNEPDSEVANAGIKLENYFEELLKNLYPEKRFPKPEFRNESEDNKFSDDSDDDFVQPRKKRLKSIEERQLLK
UniProt Q9Y5R8, whole entry, looked up: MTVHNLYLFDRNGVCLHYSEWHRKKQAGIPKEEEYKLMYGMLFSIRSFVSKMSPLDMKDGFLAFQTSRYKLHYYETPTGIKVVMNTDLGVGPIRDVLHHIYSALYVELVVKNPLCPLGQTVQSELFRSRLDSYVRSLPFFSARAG
UniProt Q7Z392: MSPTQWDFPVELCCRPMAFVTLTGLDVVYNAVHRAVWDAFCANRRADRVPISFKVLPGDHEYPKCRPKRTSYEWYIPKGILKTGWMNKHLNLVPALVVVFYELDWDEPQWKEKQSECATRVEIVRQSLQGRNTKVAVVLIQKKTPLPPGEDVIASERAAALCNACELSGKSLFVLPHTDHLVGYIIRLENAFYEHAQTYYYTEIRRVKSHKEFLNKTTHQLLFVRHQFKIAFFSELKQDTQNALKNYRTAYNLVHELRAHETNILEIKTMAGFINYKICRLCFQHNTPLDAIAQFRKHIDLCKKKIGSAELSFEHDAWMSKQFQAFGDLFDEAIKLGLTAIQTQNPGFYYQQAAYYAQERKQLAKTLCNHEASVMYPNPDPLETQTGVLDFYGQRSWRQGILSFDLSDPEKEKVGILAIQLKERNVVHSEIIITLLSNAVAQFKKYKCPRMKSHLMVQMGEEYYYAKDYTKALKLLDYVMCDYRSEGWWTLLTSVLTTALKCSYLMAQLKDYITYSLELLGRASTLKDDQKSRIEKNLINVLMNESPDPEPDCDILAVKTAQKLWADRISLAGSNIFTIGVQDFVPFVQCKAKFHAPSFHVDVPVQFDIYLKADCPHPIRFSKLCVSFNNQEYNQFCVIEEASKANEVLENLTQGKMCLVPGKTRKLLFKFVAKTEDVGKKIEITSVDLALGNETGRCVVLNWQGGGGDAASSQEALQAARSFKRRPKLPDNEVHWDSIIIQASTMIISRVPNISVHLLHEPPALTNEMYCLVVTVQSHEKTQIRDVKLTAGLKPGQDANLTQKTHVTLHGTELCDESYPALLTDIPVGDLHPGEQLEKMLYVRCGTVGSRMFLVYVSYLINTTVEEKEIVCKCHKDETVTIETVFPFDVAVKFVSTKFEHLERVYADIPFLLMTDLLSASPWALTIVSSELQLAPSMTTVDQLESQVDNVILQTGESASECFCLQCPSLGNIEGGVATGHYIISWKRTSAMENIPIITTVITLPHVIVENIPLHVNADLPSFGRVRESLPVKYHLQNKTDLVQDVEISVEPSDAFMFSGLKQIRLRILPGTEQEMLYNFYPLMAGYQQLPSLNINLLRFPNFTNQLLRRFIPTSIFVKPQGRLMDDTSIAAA
UniProt Q7L0Y3: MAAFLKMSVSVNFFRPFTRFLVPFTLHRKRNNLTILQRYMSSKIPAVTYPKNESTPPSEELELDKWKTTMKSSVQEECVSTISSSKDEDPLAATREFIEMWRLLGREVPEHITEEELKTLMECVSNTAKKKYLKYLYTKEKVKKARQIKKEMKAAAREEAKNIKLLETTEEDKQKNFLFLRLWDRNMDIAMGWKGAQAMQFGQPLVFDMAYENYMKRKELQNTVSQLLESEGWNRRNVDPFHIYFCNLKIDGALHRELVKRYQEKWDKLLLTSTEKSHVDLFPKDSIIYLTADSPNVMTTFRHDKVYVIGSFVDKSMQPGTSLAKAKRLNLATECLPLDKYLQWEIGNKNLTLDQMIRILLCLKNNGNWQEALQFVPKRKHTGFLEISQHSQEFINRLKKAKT
UniProt Q9H4I3: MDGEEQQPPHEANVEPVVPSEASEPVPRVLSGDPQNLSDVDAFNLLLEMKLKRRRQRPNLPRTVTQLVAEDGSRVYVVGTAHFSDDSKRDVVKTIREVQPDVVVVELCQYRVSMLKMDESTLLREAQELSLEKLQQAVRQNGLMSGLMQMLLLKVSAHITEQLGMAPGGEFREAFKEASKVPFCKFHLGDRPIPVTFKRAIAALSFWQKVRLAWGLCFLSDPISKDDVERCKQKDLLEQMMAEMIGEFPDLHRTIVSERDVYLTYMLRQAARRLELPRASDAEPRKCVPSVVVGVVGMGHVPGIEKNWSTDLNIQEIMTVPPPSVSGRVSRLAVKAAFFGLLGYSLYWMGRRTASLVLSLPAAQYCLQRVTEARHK
UniProt Q15642: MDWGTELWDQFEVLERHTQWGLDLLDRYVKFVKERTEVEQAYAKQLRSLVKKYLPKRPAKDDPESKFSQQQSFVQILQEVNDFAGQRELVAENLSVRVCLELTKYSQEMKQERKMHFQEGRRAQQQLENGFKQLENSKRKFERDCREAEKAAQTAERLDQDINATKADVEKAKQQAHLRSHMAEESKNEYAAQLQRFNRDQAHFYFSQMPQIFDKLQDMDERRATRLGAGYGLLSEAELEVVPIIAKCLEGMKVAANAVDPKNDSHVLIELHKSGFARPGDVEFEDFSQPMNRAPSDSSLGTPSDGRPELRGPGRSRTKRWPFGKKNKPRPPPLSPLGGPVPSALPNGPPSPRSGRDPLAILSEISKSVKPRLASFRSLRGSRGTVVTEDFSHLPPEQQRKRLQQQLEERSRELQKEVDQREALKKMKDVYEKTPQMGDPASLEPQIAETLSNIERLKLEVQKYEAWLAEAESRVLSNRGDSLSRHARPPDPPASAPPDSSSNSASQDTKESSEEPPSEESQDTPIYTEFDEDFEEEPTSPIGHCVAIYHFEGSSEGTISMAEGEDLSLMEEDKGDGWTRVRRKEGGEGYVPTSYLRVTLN
UniProt Q8NCE0: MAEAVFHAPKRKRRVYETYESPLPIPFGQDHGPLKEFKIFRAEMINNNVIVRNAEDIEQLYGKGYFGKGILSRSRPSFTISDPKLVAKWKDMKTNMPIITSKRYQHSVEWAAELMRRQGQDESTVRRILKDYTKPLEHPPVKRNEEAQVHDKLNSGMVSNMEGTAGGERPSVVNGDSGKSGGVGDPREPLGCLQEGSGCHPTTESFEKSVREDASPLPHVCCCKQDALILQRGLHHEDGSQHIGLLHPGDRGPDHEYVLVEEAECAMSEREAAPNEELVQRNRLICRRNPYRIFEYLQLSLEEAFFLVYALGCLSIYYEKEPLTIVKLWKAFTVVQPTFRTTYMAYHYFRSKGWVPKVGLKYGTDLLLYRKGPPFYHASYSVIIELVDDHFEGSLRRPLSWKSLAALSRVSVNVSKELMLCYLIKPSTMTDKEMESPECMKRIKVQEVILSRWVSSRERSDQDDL
UniProt Q96DX7: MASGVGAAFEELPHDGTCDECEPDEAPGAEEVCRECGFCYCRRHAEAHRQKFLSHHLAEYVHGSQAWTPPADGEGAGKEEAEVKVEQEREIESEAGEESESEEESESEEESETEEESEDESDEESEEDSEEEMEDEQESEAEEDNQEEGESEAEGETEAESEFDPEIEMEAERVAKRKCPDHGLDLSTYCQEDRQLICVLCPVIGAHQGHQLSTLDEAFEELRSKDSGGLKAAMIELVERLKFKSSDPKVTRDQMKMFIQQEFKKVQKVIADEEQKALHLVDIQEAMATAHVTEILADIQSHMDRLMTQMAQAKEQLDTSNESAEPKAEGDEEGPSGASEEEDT
UniProt Q9P0U1: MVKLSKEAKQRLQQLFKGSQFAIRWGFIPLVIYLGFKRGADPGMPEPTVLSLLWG
UniProt Q86SZ2: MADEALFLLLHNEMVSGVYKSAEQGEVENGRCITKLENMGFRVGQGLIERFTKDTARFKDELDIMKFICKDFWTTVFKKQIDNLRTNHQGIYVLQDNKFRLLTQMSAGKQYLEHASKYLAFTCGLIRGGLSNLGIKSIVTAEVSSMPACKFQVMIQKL
UniProt Q629K1: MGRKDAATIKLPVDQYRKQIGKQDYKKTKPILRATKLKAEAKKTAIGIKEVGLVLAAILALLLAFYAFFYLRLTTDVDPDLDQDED

Some of the results follow.
The targets below were run with CS(=O)(=O)CCNCc1ccc(-c2ccc3ncnc(Nc4ccc(OCc5cccc(F)c5)c(Cl)c4)c3c2)o1 [lapatinib] (assay: log2 fold change, soluble protein after heating vs DMSO (PISA); higher = thermal stabilisation; K562 cells, 10 uM, 30 min; active = over 0.2 and 3.5 SD of the protein, either way, in both replicates (recomputed)).
Method in brief: (§1)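 Values are thermal stability changes relative to control samples and are taken from duplicates. They are stated as log2 fold changes. Before quantification by TMTpro 16plex LC-MS/MS with equalised channel sums, K562 cells at 2×10^6 cells/mL were treated with 10 μM compound for 30 min, heated in aliquots for 3 min across 48°C-58°C, pooled, extracted in PBS with 0.5% NP-40 at 4°C, and centrifuged at 21,000xg for 90 min to give the soluble supernatant.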
In the case of TP53BP2 isoform 3 (UniProt Q13625), the log2 fold change is reported as inactive: 0.036.
In the case of TRIP11 (UniProt Q15643), the log2 fold change is reported as inactive: -0.01.
In the case of TPP2 (UniProt Q5VZU9), the log2 fold change is reported as inactive: -0.06.
For TPK1 (UniProt Q9H3S4), the log2 fold change was inactive: 0.001.
TRUB2 (UniProt O95900) was tested, and the log2 fold change was inactive: 0.096.
In the case of TRIM4 (UniProt Q9C037), the log2 fold change is reported as inactive: -0.011.
In the case of TNRC6B (UniProt Q9UPQ9), the log2 fold change is reported as inactive: 0.059.
TRAF7 (UniProt Q6Q0C0) was tested, and the log2 fold change was inactive: 0.057.
In the case of TRPM7 (UniProt Q96QT4), the log2 fold change is reported as inactive: 0.087.
TRIM24 (UniProt O15164) was tested, and the log2 fold change was inactive: -0.025.
In the case of TRAPPC1 (UniProt Q9Y5R8), the log2 fold change is reported as inactive: 0.021.
For TRAPPC11 (UniProt Q7Z392), the log2 fold change was inactive: -0.014.
For TSEN34 (UniProt Q9BSV6), the log2 fold change was inactive: 0.039.
For TRPC4AP (UniProt Q8TEL6), the log2 fold change was inactive: 0.08.
In the case of TP53BP1 isoform 2 (UniProt Q12888), the log2 fold change is reported as inactive: 0.028.
For TNFRSF8 (UniProt P28908), the log2 fold change was inactive: 0.003.
In the case of TRMT10C (UniProt Q7L0Y3), the log2 fold change is reported as inactive: -0.033.
With TRABD (UniProt Q9H4I3) the log2 fold change was inactive: 0.081.
For TRIP10 isoform 2 (UniProt Q15642), the log2 fold change was inactive: -0.083.
For TSEN2 (UniProt Q8NCE0), the log2 fold change was inactive: -0.015.
With TRMT61A (UniProt Q96FX7) the log2 fold change was inactive: 0.03.
For TRIM44 (UniProt Q96DX7), the log2 fold change was inactive: 0.025.
With TOMM7 (UniProt Q9P0U1) the log2 fold change was inactive: 0.027.
With TSC2 (UniProt P49815) the log2 fold change was inactive: 0.135.
For TRAPPC6B (UniProt Q86SZ2), the log2 fold change was inactive: 0.019.

What follows are targets tested with CS(=O)(=O)N1CCN(Cc2cc3nc(-c4cccc5[nH]ncc45)nc(N4CCOCC4)c3s2)CC1 [pictilisib] in the same assay as above.
Method in brief: as §1
With TP53BP2 isoform 3 (UniProt Q13625) the log2 fold change was inactive: 0.162.
For TRIP11 (UniProt Q15643), the log2 fold change was inactive: 0.106.
For TOM1 (UniProt O60784), the log2 fold change was inactive: 0.171.
TPK1 (UniProt Q9H3S4) was tested, and the log2 fold change was inactive: -0.076.
In the case of TRUB2 (UniProt O95900), the log2 fold change is reported as inactive: -0.144.
TRIM4 (UniProt Q9C037) was tested, and the log2 fold change was inactive: 0.202.
In the case of TNRC6B (UniProt Q9UPQ9), the log2 fold change is reported as inactive: -0.333.
For TRIM23 (UniProt P36406), the log2 fold change was inactive: 0.204.
In the case of TRPM7 (UniProt Q96QT4), the log2 fold change is reported as inactive: 0.033.
For TRIM24 (UniProt O15164), the log2 fold change was inactive: 0.06.
In the case of TRAPPC1 (UniProt Q9Y5R8), the log2 fold change is reported as inactive: -0.003.
With TRAPPC11 (UniProt Q7Z392) the log2 fold change was inactive: 0.042.
In the case of TRPC4AP (UniProt Q8TEL6), the log2 fold change is reported as inactive: -0.042.
In the case of TP53BP1 isoform 2 (UniProt Q12888), the log2 fold change is reported as inactive: 0.
For TNFRSF8 (UniProt P28908), the log2 fold change was inactive: 0.047.
TRMT10C (UniProt Q7L0Y3) was tested, and the log2 fold change was inactive: 0.007.
TRABD (UniProt Q9H4I3) was tested, and the log2 fold change was inactive: 0.15.
With TRIP10 isoform 2 (UniProt Q15642) the log2 fold change was inactive: 0.06.
With TSEN2 (UniProt Q8NCE0) the log2 fold change was inactive: 0.013.
With TRMT61A (UniProt Q96FX7) the log2 fold change was inactive: -0.18.
In the case of TRIM44 (UniProt Q96DX7), the log2 fold change is reported as inactive: 0.039.
For TOMM7 (UniProt Q9P0U1), the log2 fold change was inactive: 0.076.
For TSC2 (UniProt P49815), the log2 fold change was inactive: 0.076.
TRAPPC6B (UniProt Q86SZ2) was tested, and the log2 fold change was inactive: 0.02.

These targets were tested with CS(=O)(=O)c1ccc(-c2cnc(N)c(C(=O)Nc3ccccc3)n2)cc1 in the same assay as above.
Method in brief: as §1
With TP53BP2 isoform 3 (UniProt Q13625) the log2 fold change was inactive: 0.015.
For TRIP11 (UniProt Q15643), the log2 fold change was inactive: 0.059.
TPP2 (UniProt Q5VZU9) was tested, and the log2 fold change was inactive: 0.114.
For TPPP3 (UniProt Q9BW30), the log2 fold change was inactive: 0.083.
TOM1 (UniProt O60784) was tested, and the log2 fold change was inactive: -0.04.
TPK1 (UniProt Q9H3S4) was tested, and the log2 fold change was inactive: 0.044.
TRUB2 (UniProt O95900) was tested, and the log2 fold change was inactive: 0.323.
TRIM4 (UniProt Q9C037) was tested, and the log2 fold change was inactive: 0.114.
For TOM1L2 (UniProt Q6ZVM7), the log2 fold change was inactive: 0.03.
TNRC6B (UniProt Q9UPQ9) was tested, and the log2 fold change was inactive: -0.021.
With TREML2 (UniProt Q5T2D2) the log2 fold change was inactive: 0.182.
For TRAF7 (UniProt Q6Q0C0), the log2 fold change was inactive: 0.028.
With TRIM23 (UniProt P36406) the log2 fold change was inactive: 0.143.
With TRIM24 (UniProt O15164) the log2 fold change was inactive: 0.054.
For TRAPPC1 (UniProt Q9Y5R8), the log2 fold change was inactive: 0.038.
For TRAPPC11 (UniProt Q7Z392), the log2 fold change was inactive: -0.004.
In the case of TSEN34 (UniProt Q9BSV6), the log2 fold change is reported as inactive: 0.051.
TRPC4AP (UniProt Q8TEL6) was tested, and the log2 fold change was inactive: -0.191.
TP53BP1 isoform 2 (UniProt Q12888) was tested, and the log2 fold change was inactive: 0.025.
For TNFRSF8 (UniProt P28908), the log2 fold change was inactive: 0.051.
With TRMT10C (UniProt Q7L0Y3) the log2 fold change was inactive: 0.045.
For TRIO (UniProt O75962), the log2 fold change was inactive: 0.057.
With TRPT1 isoform 4 (UniProt Q86TN4) the log2 fold change was inactive: -0.176.
For TRABD (UniProt Q9H4I3), the log2 fold change was inactive: -0.041.
With TRIP10 isoform 2 (UniProt Q15642) the log2 fold change was inactive: 0.132.
In the case of TSEN2 (UniProt Q8NCE0), the log2 fold change is reported as inactive: -0.198.
TRMT61A (UniProt Q96FX7) was tested, and the log2 fold change was inactive: -0.017.
TRIM44 (UniProt Q96DX7) was tested, and the log2 fold change was inactive: 0.013.
TOMM7 (UniProt Q9P0U1) was tested, and the log2 fold change was inactive: 0.013.
For TSC2 (UniProt P49815), the log2 fold change was inactive: -0.09.
TRAPPC6B (UniProt Q86SZ2) was tested, and the log2 fold change was inactive: -0.008.
In the case of TRIQK (UniProt Q629K1), the log2 fold change is reported as inactive: 0.003.

Reference: the supplement of paper PMC10849652
